From paper PMC10153392
These are yes or no findings as the source states them, for the method shown. Some binding calls cover weakened binding; strength is not graded here. Sequences can lack the tags named with a protein.

Chains of the proteins cited; added tags and fusions are not shown.
UniProt P04419: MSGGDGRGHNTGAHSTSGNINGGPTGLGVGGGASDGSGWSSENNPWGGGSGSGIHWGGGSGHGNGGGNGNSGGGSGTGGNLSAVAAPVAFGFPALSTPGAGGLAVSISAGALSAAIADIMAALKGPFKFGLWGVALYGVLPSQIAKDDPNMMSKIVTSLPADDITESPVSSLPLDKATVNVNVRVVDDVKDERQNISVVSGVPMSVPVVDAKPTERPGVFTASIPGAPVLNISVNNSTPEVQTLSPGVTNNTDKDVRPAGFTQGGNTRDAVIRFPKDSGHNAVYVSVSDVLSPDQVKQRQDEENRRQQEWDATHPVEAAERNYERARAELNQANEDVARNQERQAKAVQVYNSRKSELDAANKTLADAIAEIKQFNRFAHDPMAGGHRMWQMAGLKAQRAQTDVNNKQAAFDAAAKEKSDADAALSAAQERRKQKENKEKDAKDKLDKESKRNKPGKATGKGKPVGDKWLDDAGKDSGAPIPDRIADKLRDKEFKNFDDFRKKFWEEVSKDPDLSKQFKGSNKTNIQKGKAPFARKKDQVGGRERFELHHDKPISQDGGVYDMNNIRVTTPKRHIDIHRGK

Biological target: T1, Immunity protein Im2, wild type, C-terminal His6-tag (E. coli (the paper calls E. coli the native host)) (UniProt P04482)
T1 sequence: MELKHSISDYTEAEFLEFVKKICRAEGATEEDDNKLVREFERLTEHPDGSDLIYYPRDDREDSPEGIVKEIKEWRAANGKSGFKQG
Assay: co-purification on Ni-NTA; ColE co-expressed with Im (C-terminal His6-tag) in E. coli BL21 (DE3); supernatant bound to Ni-NTA beads 1 hr at 4 °C, washed with 20 mM imidazole, eluted with 500 mM imidazole; 50 mM Tris pH 8.6, 50 mM NaCl, 2 mM MgCl2

## Colicin E2 (ColE2), wild type (from UniProt P04419 1-581)
  binding: binds
